Results are given in words; binding and its absence hold for the method and conditions named. Some entries that bind do so weakly or less than the wild type.

Sequences of proteins named here, by UniProt entry; tags and fusion partners are left off. A change or cut given only in a name is not applied to a line headed by its entry.
UniProt Q7KYR7: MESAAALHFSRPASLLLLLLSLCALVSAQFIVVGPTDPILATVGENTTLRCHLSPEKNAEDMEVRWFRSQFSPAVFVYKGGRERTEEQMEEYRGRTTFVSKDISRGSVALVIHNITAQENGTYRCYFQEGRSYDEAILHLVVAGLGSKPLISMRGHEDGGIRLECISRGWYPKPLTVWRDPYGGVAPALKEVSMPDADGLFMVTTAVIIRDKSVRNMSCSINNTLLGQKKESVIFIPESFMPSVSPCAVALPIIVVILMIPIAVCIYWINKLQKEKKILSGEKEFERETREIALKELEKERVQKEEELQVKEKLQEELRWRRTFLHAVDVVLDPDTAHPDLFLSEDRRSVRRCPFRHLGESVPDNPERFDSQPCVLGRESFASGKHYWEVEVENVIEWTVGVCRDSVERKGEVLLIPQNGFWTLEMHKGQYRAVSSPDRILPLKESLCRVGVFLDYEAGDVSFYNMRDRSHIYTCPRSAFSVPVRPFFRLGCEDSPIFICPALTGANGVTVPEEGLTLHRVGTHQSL

The target of the experiment is human BTN2A1 CFP(Nter)-fusion protein expressed on 293F BTN3/BTN2 KO cells (human) (UniProt Q7KYR7). Description: flow cytometry on 293F BTN3/BTN2 KO cells transfected with BTN2A1-CFP. (In flow cytometry, cells or beads pass a laser one at a time.)

B1: mAb6 (mouse anti-human BTN2 mAb 8.16) (antibody, V domains shown)
VH: EVKLLESGGGLVQPGGSLKLSCAASGFDFSGYWMTWVRQAPGKGLEWIGEINPDSSTINYTPSLRDKFIISRDNAKNTLYLQMSKVRSEDTALYFCARGSYYPSYWGQGTLVTVSA
VL: DIVLTQSPASLAVSLGQRATISCRASKSVSSSGYSYMNWYQQKPGQPPKLLIYLASNLESGVPARFSGSGSGTDFTLNIHPVEDEDAATYYCQHSRELPHTFGGGTKLEIK
notes: Mouse IgG1 purified from hybridoma supernatant; also called CNCM I-5236
Consider B1, for which the binding entry was “binds”.

These data come from US20200283519A1 (IMCHECK THERAPEUTICS, published 2020).
